Test results: the supplement of paper PMC8728848
This is one part of the list.

Assays:
Experiment in all cases: glycan array binding signal (z-score within array); higher = stronger binding
Settings in all cases: glycan notation: IUPAC condensed, linker removed
[1] = target: Fuc(a1-2)[GalNAc(a1-3)]Gal(b1-3)GlcNAc(b1-6)GalNAc
Procedure, shortened: (§1)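 Glycan array data were curated from 3228 arrays in the Consortium for Functional Glycomics database and kept only where the protein sequence was available. Glycan names were converted to IUPAC-condensed notation, and columns mapping to the same glycan were averaged. The binding signal is a within-array Z-score, averaged across arrays of the same protein sequence at different concentrations or buffers and across linkers. Negative Z-scores can be read as non-binding.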

[2] = target: Fuc(a1-2)[GalNAc(a1-3)]Gal(b1-4)Glc
Procedure, shortened: as §1

[3] = target: Fuc(a1-2)[GalNAc(a1-3)]Gal(b1-4)GlcNAc
Procedure, shortened: as §1

[4] = target: Fuc(a1-2)[GalNAc(a1-3)]Gal(b1-4)GlcNAc(b1-2)Man
Procedure, shortened: as §1

[5] = target: Fuc(a1-2)[GalNAc(a1-3)]Gal(b1-4)GlcNAc(b1-2)Man(a1-3)[Fuc(a1-2)[GalNAc(a1-3)]Gal(b1-4)GlcNAc(b1-2)Man(a1-6)]Man(b1-4)GlcNAc(b1-4)GlcNAc
Procedure, shortened: as §1

[6] = target: Fuc(a1-2)[GalNAc(a1-3)]Gal(b1-4)GlcNAc(b1-2)Man(a1-3)[Fuc(a1-2)[GalNAc(a1-3)]Gal(b1-4)GlcNAc(b1-2)Man(a1-6)]Man(b1-4)GlcNAc(b1-4)[Fuc(a1-6)]GlcNAc
Procedure, shortened: as §1

[7] = target: Fuc(a1-2)[GalNAc(a1-3)]Gal(b1-4)GlcNAc(b1-3)Gal(b1-4)GlcNAc
Procedure, shortened: as §1

[8] = target: Fuc(a1-2)[GalNAc(a1-3)]Gal(b1-4)GlcNAc(b1-3)Gal(b1-4)GlcNAc(b1-3)Gal(b1-4)GlcNAc
Procedure, shortened: as §1

[9] = target: Fuc(a1-2)[GalNAc(a1-3)]Gal(b1-4)GlcNAc(b1-3)GalNAc
Procedure, shortened: as §1

[10] = target: Fuc(a1-2)[GalNAc(a1-3)]Gal(b1-4)GlcNAc(b1-3)[Fuc(a1-2)[GalNAc(a1-3)]Gal(b1-4)GlcNAc(b1-6)]GalNAc
Procedure, shortened: as §1

[11] = target: Fuc(a1-2)[GalNAc(a1-3)]Gal(b1-4)GlcNAc(b1-6)GalNAc
Procedure, shortened: as §1

[12] = target: Fuc(a1-2)[GalNAc(a1-3)]Gal(b1-4)[Fuc(a1-3)]GlcNAc
Procedure, shortened: as §1

[13] = target: Fuc(a1-2)[GalNAc(a1-3)]Gal(b1-4)[Fuc(a1-3)]GlcNAc(b1-3)GalNAc
Procedure, shortened: as §1

[14] = target: Fuc(a1-2)[GalNAc(a1-4)]Gal(b1-4)GlcNAc
Procedure, shortened: as §1

[15] = target: Fuc(a1-2)[GalNAc(b1-3)]Gal
Procedure, shortened: as §1

Fuc(a1-3)GlcNAc = target: Fuc(a1-3)GlcNAc
Procedure, shortened: as §1

[16] = target: Fuc(a1-3)[Gal(b1-4)]Glc6S
Procedure, shortened: as §1

[17] = target: Fuc(a1-3)[Gal(b1-4)]GlcNAc
Procedure, shortened: as §1

[18] = target: Fuc(a1-3)[Gal(b1-4)]GlcNAc(b1-2)Man
Procedure, shortened: as §1

[19] = target: Fuc(a1-3)[Gal(b1-4)]GlcNAc(b1-2)Man(a1-3)[Fuc(a1-3)[Gal(b1-4)]GlcNAc(b1-2)Man(a1-6)]Man(b1-4)GlcNAc(b1-4)GlcNAc
Procedure, shortened: as §1

[20] = target: Fuc(a1-3)[Gal(b1-4)]GlcNAc(b1-2)Man(a1-3)[Fuc(a1-3)[Gal(b1-4)]GlcNAc(b1-2)Man(a1-6)]Man(b1-4)GlcNAc(b1-4)[Fuc(a1-6)]GlcNAc
Procedure, shortened: as §1

[21] = target: Fuc(a1-3)[Gal(b1-4)]GlcNAc(b1-3)Gal(b1-3)[Fuc(a1-4)]GlcNAc
Procedure, shortened: as §1

[22] = target: Fuc(a1-3)[Gal(b1-4)]GlcNAc(b1-3)GalNAc
Procedure, shortened: as §1

[23] = target: Fuc(a1-3)[Gal(b1-4)]GlcNAc(b1-4)Gal(b1-4)[Fuc(a1-3)]GlcNAc
Procedure, shortened: as §1

[24] = target: Fuc(a1-3)[Gal(b1-4)]GlcNAc(b1-4)Gal(b1-4)[Fuc(a1-3)]GlcNAc(b1-4)Gal(b1-4)[Fuc(a1-3)]GlcNAc
Procedure, shortened: as §1

[25] = target: Fuc(a1-3)[Gal(b1-4)]GlcNAc(b1-6)GalNAc
Procedure, shortened: as §1

[26] = target: Fuc(a1-3)[Gal(b1-4)]GlcNAc(b1-6)[Gal(b1-3)GlcNAc(b1-3)]Gal(b1-4)Glc
Procedure, shortened: as §1

[27] = target: Fuc(a1-3)[Gal(b1-4)]GlcNAc6S
Procedure, shortened: as §1

[28] = target: Fuc(a1-3)[Gal3S(b1-4)]Glc
Procedure, shortened: as §1

[29] = target: Fuc(a1-3)[Gal3S(b1-4)]GlcNAc
Procedure, shortened: as §1

[30] = target: Fuc(a1-3)[Gal3S(b1-4)]GlcNAc6S
Procedure, shortened: as §1

[31] = target: Fuc(a1-3)[GalNAc(b1-4)]GlcNAc
Procedure, shortened: as §1

[32] = target: Fuc(a1-3)[GalNAc(b1-4)]GlcNAc6S
Procedure, shortened: as §1

Fuc(a1-4)GlcNAc = target: Fuc(a1-4)GlcNAc
Procedure, shortened: as §1

Fuc(b1-3)GlcNAc = target: Fuc(b1-3)GlcNAc
Procedure, shortened: as §1

Gal(a1-2)Gal = target: Gal(a1-2)Gal
Procedure, shortened: as §1

Gal(a1-3)Gal = target: Gal(a1-3)Gal
Procedure, shortened: as §1

B1: Protein L(B1-B4) (Finegoldia magna), Q51912 (protein)
chain: KEETPETPETDSEEEVTIKANLIFANGSTQTAEFKGTFEKATSEAYAYADTLKKDNGEYTVDVADKGYTLNIKFAGKEKTPEEPKEEVTIKANLIYADGKTQTAEFKGTFEEATAEAYRYADALKKDNGEYTVDVADKGYTLNIKFAGKEKTPEEPKEEVTIKANLIYADGKTQTAEFKGTFEEATAEAYRYADLLAKENGKYTVDVADKGYTLNIKFAGKEKTPEEPKEEVTIKANLIYADGKTQTAEFKGTFAEATAEAYRYADLLAKENGKYTADLEDGGYTINIRFAG
- glycan array binding signal (z-score) [1]: -0.958
- glycan array binding signal (z-score) [2]: -0.87
- glycan array binding signal (z-score) [3]: -0.955
- glycan array binding signal (z-score) [4]: -0.543
- glycan array binding signal (z-score) [5]: -0.464
- glycan array binding signal (z-score) [6]: 2.95
- glycan array binding signal (z-score) [7]: -0.916
- glycan array binding signal (z-score) [8]: 1.73
- glycan array binding signal (z-score) [9]: -0.042
- glycan array binding signal (z-score) [10]: -0.243
- glycan array binding signal (z-score) [11]: -0.705
- glycan array binding signal (z-score) [12]: 2.66
- glycan array binding signal (z-score) [13]: 2.6
- glycan array binding signal (z-score) [14]: -0.856
- glycan array binding signal (z-score) [15]: -0.841
- glycan array binding signal (z-score) (Fuc(a1-3)GlcNAc): -0.6
- glycan array binding signal (z-score) [16]: 2.06
- glycan array binding signal (z-score) [17]: -0.613
- glycan array binding signal (z-score) [18]: 0.206
- glycan array binding signal (z-score) [19]: -0.06
- glycan array binding signal (z-score) [20]: 1.35
- glycan array binding signal (z-score) [21]: 0.708
- glycan array binding signal (z-score) [22]: 1.01
- glycan array binding signal (z-score) [23]: 1.59
- glycan array binding signal (z-score) [24]: 0.587
- glycan array binding signal (z-score) [25]: 1.68
- glycan array binding signal (z-score) [26]: 0.06
- glycan array binding signal (z-score) [27]: 1.6
- glycan array binding signal (z-score) [28]: 1.95
- glycan array binding signal (z-score) [29]: -0.563
- glycan array binding signal (z-score) [30]: 0.182
- glycan array binding signal (z-score) [31]: 1.12
- glycan array binding signal (z-score) [32]: -0.65
- glycan array binding signal (z-score) (Fuc(a1-4)GlcNAc): -0.839
- glycan array binding signal (z-score) (Fuc(b1-3)GlcNAc): -0.378
- glycan array binding signal (z-score) (Gal(a1-2)Gal): -0.43
- glycan array binding signal (z-score) (Gal(a1-3)Gal): -0.589
